According to patent US20230052517A1, “ELECTROCHEMICAL SENSING METHODS AND APPARATUS FOR DETERMINING DRUG UPTAKE AND RETENTION IN CELLS” (priority 2020, published 2023):

How the values were obtained:
[1] = Control drug solution without bacterial cells incubated at 37° C., DPV; conditions: 1 mM in PBS, 25 minutes at 37° C.
Procedure: (§1) DPV measurements of 1 mM Cip were taken and after incubation, centrifugation was performed at 4000 rpm for 10 min and the supernatant was collected.
Similarly uptake of Tobramycin (2 mM), was analyzed in Pseudomonas aeruginosa also using DPV. The control solutions were tested before and after incubation at 37° C. and with different incubation times at 37° C. (i.e. 15 minutes; 30 minutes and 60 minutes). […] Integration underneath the curves provides the charge. This charge is proportional to the number of molecules transferred during DPV recordings (see FIGS. 11-14).

[2] = test system: Pseudomonas aeruginosa PA01 (ciprofloxacin-susceptible) and PA262 (ciprofloxacin-resistant); conditions: 1 mM, 25 minutes at 37° C.
Procedure: as §1

With `O=C(O)c1cn(C2CC2)c2cc(N3CCNCC3)c(F)cc2c1=O` [ciprofloxacin] the “stability of ciprofloxacin in solution” value [1] was “does not lead to a degradation of ciprofloxacin in solution”, the “DPV current signal of supernatant compared to controls (uptake by the bacteria)” value [2] was “lower current signal” and the “difference in uptake between PA01 and PA262 strains” value [2] was “No statistically significant difference”.
